Laboratory results from patent US20250134019A1, “TRIKETONE DIOXYGENASE VARIANTS FOR HERBICIDE TOLERANCE” (Monsanto Technology LLC, priority 2022, published 2025).
Substitutions are numbered along the chain they refer to. Names and notes keep the numbering of the source. Values joined by “and” are separate entries in the source; they are usually repeats but may differ in a detail not shown here. Identical values can stand only once.

B1: Os.TDO: TDO from Oryza sativa (HIS1), SEQ ID NO:2, polynucleotide codon optimized for dicot expression (protein, listed as Oryza sativa)
chain: MADESWRAPAIVQELAAAGVEEPPSRYLLREKDRSDVKLVAAELPEPLPVVDLSRLDGAEEATKLRVALQNWGFFLLTNHGVEASLMDSVMNLSREFFNQPIERKQKFSNLIDGKNFQIQGYGTDRVVTQDQILDWSDRLHLRVEPKEEQDLAFWPDHPESFRDVLNKYASGTKRIRDDIIQAMAKLLELDEDYFLDRLNEAPAFARFNYYPPCPRPDLVFGIRPHSDGTLLTILLVDKDVSGLQVQRDGKWSNVEATPHTLLINLGDTMEVMCNGIFRSPVHRVVTNAEKERISLAMLYSVNDEKDIEPAAGLLDENRPARYRKVSVEEFRAGIFGKFSRGERYIDSLRI
B2: D08: Os.TDO variant D08, SEQ ID NO:18, 20 amino acid changes relative to Os.TDO (protein)
chain: MADESWRAPALVQELAAKGVEEPPSRYLLREQDRPDVKLVAAELPEPIPVVDLGRLDGAEEATKLRVALQNWGFFLLTNHGIEASLMDDVMNLSREFFNQPIERKQKFSNLIDGKHFQIEGYGTDRVVTQDQVLDWSDRLHLRVEPKEEQDLAFWPDHPESFRDVLHKYASGCKRIRDDIIQAMAKLLELDEDYFLDRFNEAPTFARFNYYPPCPRPDLVFGIRPHSDGGLLTILLVDKDVGGLQVQRDGKWSNVPATPHTLLINLGDTMEVMSNGIFKSPVHRVVTNAEKERISLAMLYSVNDEKDIEPAAGLLDENRPARYRKVSVEEFRAGIFGKFSRGERYIDSLRI
modifications: TDO variant sequence
B3: TDO_6: Os.TDO variant, SEQ ID NO:38, G242S-P256E relative to D08 (protein)
chain: B2 chain with G242S, P256E
modifications: TDO variant sequence
B4: TDO_8: Os.TDO variant, SEQ ID NO:42, Q32K-I48L-V133I-G242S-P256E relative to D08 (protein)
chain: B2 chain with Q32K, I48L, V133I, G242S, P256E
modifications: TDO variant sequence

Tested on: transgenic cotton plants
Experiment: Effect of heat treatment on TDO protein accumulation in cotton plants (ELISA)
Format: in vivo
Conditions: Growth Temperature: 80° F.
Experimental: Cotton is a crop of interest that is often exposed to high temperature growing conditions and thus, selected TDO variants were tested in cotton. Three TDO variants, D08, TDO_6, and TDO_8 were transformed into cotton (along with the Os.TDO control) using similar expression elements in single-cassette vectors or as part of multi-cassette vectors. R2 transgenic cotton plants were then screened for tolerance to mesotrione. Sixteen plants from two events each per construct were sprayed with two rates (2X and 8X) of mesotrione at V3 stage under normal (80° F.) and hot (100° F.) growing conditions. In addition, the effect of heat treatment on TDO accumulation in cotton plants were measured by ELISA. Cotton plants were planted and grown under normal greenhouse conditions (80° F. day/70° F. night) until V3 growth stage. Half of the plants were then moved to a higher temperature growth chamber (100° F. day/82° F. night) for the heat treatment, whereas the remaining half of the plants stayed in the same greenhouse (80° F. day/70° F. night). At day 3 after the plants were placed under different temperature conditions, leaf samples were collected for TDO protein measurement. The plants in 100° F. growth chamber and in 80° F. greenhouse were both sprayed with 2X mesotrione (210 g a.i./ha). Leaf samples were collected again 7 days after mesotrione treatment (DAT: Days After Treatment) for protein assay. Table 5 compares protein levels of the TDO variants in transgenic cotton plants grown under the two tested conditions. The protein levels for the TDO variants were measured at three time points for plants: 1) just before entering the high temperature treatment, 2) three days following placement into control (normal growth temperature) or high temperature (100° F.), and 3) 7 days after a 2X mesotrione spray.

Molecule | TDO Protein Level (ppm Dry Weight), 3 Days Before Mesotrione Spray (80° F.) | TDO Protein Level (ppm Dry Weight), At V3 Stage (80° F.)
B1 | 34 ppm Dry Weight and 50.9 ppm Dry Weight | 41 ppm Dry Weight and 55.4 ppm Dry Weight
B2 | 67.5 ppm Dry Weight and 89.1 ppm Dry Weight | 65.1 ppm Dry Weight and 93.3 ppm Dry Weight
B3 | 57.3 ppm Dry Weight | 51 ppm Dry Weight
B4 | 55.5 ppm Dry Weight | 53.3 ppm Dry Weight

Same assay, conditions: Growth Temperature: 80° F. > 100° F.

Molecule | TDO Protein Level (ppm Dry Weight), 3 Days Before Mesotrione Spray (100° F.)
B1 | 18.9 ppm Dry Weight and 27.5 ppm Dry Weight
B2 | 59.8 ppm Dry Weight and 92 ppm Dry Weight
B3 | 58.8 ppm Dry Weight
B4 | 60 ppm Dry Weight

Same assay, conditions: Growth Temperature: 80° F. > 100° F.; 2X mesotrione (210 g a.i./ha)

Molecule | TDO Protein Level (ppm Dry Weight), 7 Days After Mesotrione Spray (100° F.)
B1 | 14.8 ppm Dry Weight and 24.9 ppm Dry Weight
B2 | 49.6 ppm Dry Weight and 89.7 ppm Dry Weight
B3 | 54.2 ppm Dry Weight
B4 | 48.9 ppm Dry Weight

Same assay, conditions: Growth Temperature: 80° F. > 100° F.; before entering high temperature

Molecule | TDO Protein Level (ppm Dry Weight), At V3 Stage (80° F.)
B1 | 42.5 ppm Dry Weight and 59.3 ppm Dry Weight
B2 | 62.2 ppm Dry Weight and 85.8 ppm Dry Weight
B3 | 50.5 ppm Dry Weight
B4 | 55.2 ppm Dry Weight

Same assay, conditions: Growth Temperature: 80° F.; 2X mesotrione (210 g a.i./ha)

Molecule | TDO Protein Level (ppm Dry Weight), 7 Days After Mesotrione Spray (80° F.)
B1 | 26.4 ppm Dry Weight and 41.5 ppm Dry Weight
B2 | 49 ppm Dry Weight and 75 ppm Dry Weight
B3 | 34.3 ppm Dry Weight
B4 | 45.4 ppm Dry Weight

Same assay, conditions: cotton, 100° F. vs 80° F.

Molecule | TDO protein levels in high temperature treatment relative to normal conditions
B1 | reduction in TDO protein levels
